The conditions of data set [1]: dog, in vivo, po.
Data set [2] deals with glucuronidation of SVA (UDPGA-dependent). Description: in vitro. To be noted: human, liver microsomes, pH 7, probe SVA (10-20 μM), IC50, SVA Glucuronidation, statin 10-20 μM. Here is the method:
(§1) The term “glucuronidation inhibition assay” as used herein refers to the following assay when performed with human liver microsomes.
(§2) The effects of inhibitors on metabolism of the statins were expressed as percentages of metabolites (statin glucuronides and lactones) formed in the presence of inhibitors relative to the corresponding values obtained in the absence of inhibitors (control) on the same day.
(§3) Incubations were performed in triplicate for each concentration of inhibitors, and involved co-incubation of GFZ or ketoconazole (1 μM) with statins (10-20 μM) in the presence of NADPH (oxidation) or UDPGA (glucuronidation).

Data set [3] has as its system glucuronidation of CVA (UDPGA-dependent). Description: in vitro. To be noted: human, liver microsomes, pH 7, probe CVA (10-20 μM), IC50, CVA Glucuronidation, statin 10-20 μM. The procedure: as §1, §2, §3
(Liver microsomes are a subcellular fraction often used to study metabolism.)

pIC50: −log10 of the molar value.

The pIC50 is −log10 of the IC50, conventionally taken in molar units. Read a low pIC50 as a large IC50.

Consider `CC(C)OC(=O)C(C)(C)Oc1ccc(C(=O)c2ccc(Cl)cc2)cc1` [Fenofibrate, fenofibrate], for which the “SVA/SV AUC ratio, Feno/vehicle” value in data set [1] is 0.8 ± 0.2. In addition, the values for the negative-log IC50 (pIC50) in data set [2] and in data set [3] were 3.17 and 3.36, respectively.

The values are drawn from US7407772B2, “Screening and selection methods for statin drug combinations” (Merck & Co., Inc., priority 2001, dated 2008).
